Hit rate of the full screen: of about 230,000 compounds, about 310 (0.13%) were called active. Inconclusive results, whose numbers are uncertain, are shown with a selection of clear calls. The call rests on the fitted dose curve; in most records, active means well fitted activation curve with a large enough effect; inconclusive means small, poorly fitted or top-dose-only effect; inactive means no such curve, though single readings can be large or run the other way. Potencies of inconclusive entries are doubtful fits and often do not repeat.
Assay: qHTS Multiplex Assay to Identify Dual Action Probes in a Cell Model of Huntington: Cytoprotection (ATP); further: nearly all actives have a fitted effect of over 45% in size;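 on cytoprotection (ATP increase): toxic huntingtin expression switched on by the ecdysone agonist tebufenozide; % of control where 0% means no effect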
Conditions: PC12 HTT-Q103 induced, ATP luminescence, 40 h; cytoprotection (ATP increase): at 56.4 µM (top of the series) unless noted
How it was run: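 Stable PC12 Q103-GFP cells in serum-supplemented, phenol red-free DMEM; induction by tebufenozide at 100 nM final; compound dose series; cell viability quantified luminescently from ATP.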
Potency means the concentration at half of the fitted maximal effect.

| Compound | Potency | cytoprotection (ATP increase) |
| --- | --- | --- |
| Oc1cc(O)c2c(c1)O[C@H](c1ccc(O)c(O)c1)[C@@H](O)C2 | inconclusive: 0.112 µM [activator, partial curve, poor fit] |  |
| O=P(CCCCCCCCCP(=O)(c1ccccc1)c1ccccc1)(c1ccccc1)c1ccccc1 |  | inactive: -124% |
| Cn1nc(-c2ccccc2)c(C(=O)NCC(=O)O)c1Cl | inconclusive: 0.794 µM [activator, single point] |  |
| Cc1cc2c(cc1C)C(c1ccsc1)CC(=O)N2 (stereo not drawn) | inconclusive: 3.55 µM [activator, single point] |  |
| COc1cccc(/C=C/C(=O)c2ccc(NS(=O)(=O)c3ccc(C)cc3)cc2)c1 |  | inactive: 18.4% [at 10 µM] |
| CC(On1nnc2ccccc21)C(=O)N1CCN(Cc2ccccc2)CC1 (stereo not drawn) | active: 0.708 µM |  |
| CCC(Sc1ccc2nnc(CCNS(=O)(=O)c3ccc(OC)cc3)n2n1)C(=O)OC (stereo not drawn) | inconclusive: 0.178 µM [activator, full curve, poor fit] |  |
| CC(=O)NS(=O)(=O)c1ccc(NC(=O)CC(C)c2ccccc2)cc1 (stereo not drawn) | inconclusive: 5.62 µM [activator, single point] |  |
| O=S(=O)(O)c1cc(N=C=S)ccc1/C=C/c1ccc(N=C=S)cc1S(=O)(=O)O | inconclusive: 0.891 µM [activator, single point] |  |
| S=C(NCCc1ccccc1)Nc1ccc(Br)cn1 | inconclusive: 5.62 µM [activator, single point] |  |
| Cc1ccc(Cn2cccc2/C=C2/C(=N)N3C=CSC3=NC2=O)cc1 | inconclusive: 0.891 µM [activator, single point] |  |
| N[C@H](CCCP(=O)(O)O)C(=O)O | inconclusive: 0.001 µM [activator, full curve, poor fit] |  |
| CN(CC(=O)Nc1ccc(F)c(F)c1F)c1ncnc2sccc12 | inconclusive: 1.26 µM [activator, partial curve] |  |
| COCCNC(=O)C(c1ccc(F)cc1)N(C(=O)CCC(=O)Nc1nccs1)c1cccc(C)c1 (stereo not drawn) | inconclusive: 7.94 µM [activator, partial curve, poor fit] |  |
| Oc1[nH]c2ccccc2c1C=Nc1ccccc1 |  | inactive: -1.31% [at 10 µM] |
| COc1ccc2[nH]c(=O)c3c(c2c1)OC(C)(C)C=C3 | inconclusive: 17.8 µM [activator, single point] |  |
| O=C1c2c(O)cccc2Cc2cccc(O)c21 |  | inactive: 18.4% |
| Cn1c(SCC(=O)N=Nc2c(O)[nH]c3ccccc23)nc2ccccc21 | inconclusive: 1.26 µM [activator, single point] |  |
| O=C(NCc1ccco1)c1cc(-c2ccccc2)on1 |  | inactive: -20.9% |
| COC(=O)c1cnc(SCc2ccc(C)cc2)n1C | inconclusive: 5.62 µM [activator, single point] |  |
| CCC(Sc1nc2ccccc2c2nc3ccccc3n12)C(=O)NCc1ccco1 (stereo not drawn) |  | inactive: -14.2% |
| CCOc1ccc(S(=O)(=O)N(C(=O)c2ccco2)c2cc3sc(=O)oc3c3ccccc23)cc1 | active: 0.891 µM |  |

Compounds shown so far that contain fluorine:

| Compound | Potency | cytoprotection (ATP increase) |
| --- | --- | --- |
| CN(CC(=O)Nc1ccc(F)c(F)c1F)c1ncnc2sccc12 | inconclusive: 1.26 µM [activator, partial curve] |  |
| COCCNC(=O)C(c1ccc(F)cc1)N(C(=O)CCC(=O)Nc1nccs1)c1cccc(C)c1 (stereo not drawn) | inconclusive: 7.94 µM [activator, partial curve, poor fit] |  |

Carrying on.

| Compound | Potency | cytoprotection (ATP increase) |
| --- | --- | --- |
| Cc1ccc(C)n1-c1cccc(S(=O)(=O)N2CCOCC2)c1 | inconclusive: 5.62 µM [activator, single point] |  |
| CCOc1ccccc1Oc1coc2cc(OCC(=O)O)ccc2c1=O | inconclusive: 0.005 µM [activator, partial curve, poor fit] |  |
| CCC(=O)Nc1nnc(SCC(=O)N2c3ccccc3CC2C)s1 (stereo not drawn) |  | inactive: 25.5% [at 1.9 µM] |
| COc1cc2nc(C3CCC3)n(NC(=O)C3CCCC(OC)C3)c(=O)c2cc1OC (stereo not drawn) | inconclusive: 1.26 µM [activator, single point] |  |
| CC1CC(C)CN(C(=O)COC(=O)CCc2nc3ccccc3c(=O)[nH]2)C1 (stereo not drawn) |  | inactive: 9.24% [at 10 µM] |
| CN1C(=O)/C(=N/OC(=O)c2ccccc2)c2ccccc21 |  | inactive: 9.89% |
| Cc1cc(Sc2nc(NC(C)C)nc(NC(C)C)n2)nc(Cl)n1 | inconclusive: 6.31 µM [activator, single point] |  |
| CCCN(Cc1nnc(-c2ccccc2Cl)o1)C(=O)c1cc([N+](=O)[O-])cc([N+](=O)[O-])c1 | inconclusive: 35.5 µM [activator, single point] |  |
| COc1ccccc1-n1c(=O)[nH]c2c(C(N)=O)nc(CC(C)C)nc21 | inconclusive: 5.62 µM [activator, single point] |  |
| O=C(CCC(=O)N1CCN(S(=O)(=O)c2ccc(Cl)cc2)CC1)Nc1cccc(Br)c1 | inconclusive: 1 µM [activator, single point] |  |
| COc1ccc(Oc2ncc3nc(-c4ccccc4)c(=O)n(Cc4cccs4)c3n2)cc1 | inconclusive: 20 µM [activator, partial curve] |  |
| CCOC(=O)C(CCc1ccccc1)NC(C)C(=O)N1Cc2ccccc2CC1C(=O)O (stereo not drawn) |  | inactive: -33.8% |
| C[C@@H](NCc1cc(Br)cc2[nH]c(=O)c(=O)[nH]c12)P(=O)(O)O | inconclusive: 0.282 µM [activator, full curve] |  |
| COc1ccc(Cl)cc1N(CC(=O)N/N=C/c1ccc(OC(C)C)cc1)S(=O)(=O)c1ccc(C)c([N+](=O)[O-])c1 | inconclusive: 1 µM [activator, single point] |  |
| C#C[C@]1(O)CCC2C3CCC4=Cc5oncc5C[C@@]4(C)C3CC[C@@]21C (stereo partly drawn) | inconclusive: 0.316 µM [activator, partial curve] |  |
| C[C@@H](C[N+](C)(C)C)OC(N)=O | inconclusive: 1.12 µM [activator, single point] |  |
| O=C(O)[C@@H](O)[C@@H](O)[C@H](O)C(=O)CO | inconclusive: 0.1 µM [activator, full curve, poor fit] |  |
| CCCCCC(=O)NNC(=O)c1c(O)c2ccccc2n(CC)c1=O | inconclusive: 5.62 µM [activator, single point] |  |
| O=C(O)Cc1ccc(-c2ccccc2)cc1 | inconclusive: 0.316 µM [activator, full curve, poor fit] |  |
| Cc1ccccc1N1C(=O)C2ON(c3ccccc3)C(c3ccco3)C2C1=O (stereo not drawn) |  | inactive: -4.62% [at 10 µM] |
| COc1ccc(NC(=O)Cn2nnc(-c3ccccc3NC(=O)C3CC3)n2)cc1 |  | inactive: -6.58% |

From PubChem BioAssay AID1471 (National Center for Advancing Translational Sciences (NCATS), 2008)
